Results reported in patent US20140228219A1, “CYCLOHEXANONE COMPOUNDS AND HERBICIDES COMPRISING THE SAME” (priority 2011, published 2014).
Some results were stated once for a whole list of compounds, not compound by compound. For part of these data: At least one compound was matched to its structure with a doubt left.

Assays:
Type in all cases: in vivo
Echinochloa crus-galli [1] = experiment: Test 2-1 Pre-Emergence Treatment Test; conditions: sprayed on the soil surface after sowing, treatment amount 1.000 g/10000 m^2, after 3 weeks of the spraying, greenhouse
Echinochloa crus-galli [2] = experiment: Test 1-1 Post-Emergence Treatment Test; conditions: sprayed on whole plants at 1-2 leaf stages, treatment amount 1.000 g/10000 m^2, after 20 days of the treatment, greenhouse
Galium aparine = experiment: Test 1-2 Post-Emergence Treatment Test; conditions: sprayed on whole plants at 1-2 leaf stages, treatment amount 1.000 g/10000 m^2, after 20 days of the treatment, greenhouse

| SMILES | efficacy for Echinochloa crus-galli (visually observed, 11 criteria of 0 to 10) (Echinochloa crus-galli [1]) | efficacy for Echinochloa crus-galli (controlling effect, visually observed, 11 criteria of 0 to 10) (Echinochloa crus-galli [2]) | efficacy for Galium aparine (visually observed, 11 criteria of 0 to 10) (Galium aparine) |
| --- | --- | --- | --- |
| CCc1cc(C)cc(CC)c1C1=C(O)CC(CCSc2ccc(F)c(F)c2)CC1=O (stereo not drawn) [Compound 1-169] | ≥ 7 | ≥ 9 |  |
| CCc1cc(C)cc(CC)c1C1=C(O)CC(CCSc2ccc(C(F)(F)F)nc2)CC1=O (stereo not drawn) [Compound 1-112] | ≥ 7 | ≥ 9 |  |
| CCc1cc(C)cc(CC)c1C1=C(O)CC(CCSc2ccc(C(F)(F)F)nn2)CC1=O (stereo not drawn) [Compound 1-118] | ≥ 7 | ≥ 9 |  |
| O=C1CC(CCSc2ccc(C(F)(F)F)cc2)CC(O)=C1c1ccccc1F (stereo not drawn) [Compound 1-128] | ≥ 7 | ≥ 9 |  |
| Cc1cc(C)c(C2=C(O)CC(C(C)C[S+]([O-])c3ccc(C(F)(F)F)cc3)CC2=O)c(C)c1 (stereo not drawn) [Compound 1-98] | ≥ 7 | ≥ 9 | ≥ 7 |
| CCc1cc(C)cc(CC)c1C1=C(O)CC(C(C)C[S+]([O-])c2ccc(C(F)(F)F)cn2)CC1=O (stereo not drawn) [Compound 1-83] | ≥ 7 | ≥ 9 |  |
| CCc1cc(C)cc(C)c1C1=C(O)CC(CCSc2ccc(C(F)(F)F)cc2)CC1=O (stereo not drawn) [Compound 1-41] | ≥ 7 | ≥ 9 |  |
| CCc1cc(C)cc(CC)c1C1=C(O)CC(CCSc2c(C)cccc2C)CC1=O (stereo not drawn) [Compound 1-148] | ≥ 7 |  |  |
| CCc1cc(C)cc(CC)c1C1=C(O)CC(C2(CSc3ccc(C(F)(F)F)cc3)CC2)CC1=O (stereo not drawn) [Compound 1-23] | ≥ 7 | ≥ 9 |  |
| CCc1cc(C)cc(CC)c1C1=C(O)CC(CCSc2ccc(S(F)(F)(F)(F)F)cc2)CC1=O (stereo not drawn) [Compound 1-75] | ≥ 7 | ≥ 9 |  |
| CCc1cc(Oc2ncc(C(F)(F)F)cc2Cl)ccc1C1=C(O)CC(CCSc2ccc(C(F)(F)F)cn2)CC1=O (stereo not drawn) [Compound 1-40] | ≥ 7 | ≥ 9 |  |
| CCc1cc(C)cc(CC)c1C1=C(O)CC(CCSc2ccccc2NC(=O)c2ccccc2)CC1=O (stereo not drawn) [Compound 1-78] | ≥ 7 | ≥ 9 |  |
| CCc1cc(C)cc(CC)c1C1=C(O)CC(CCSc2ccc(C(F)(F)F)cn2)CC1=O (stereo not drawn) [Compound 1-121] | ≥ 7 | ≥ 9 |  |
| CCc1cc(C)cc(CC)c1C1=C(O)CC(CCSc2ccncc2)CC1=O (stereo not drawn) [Compound 1-33] | ≥ 7 | ≥ 9 |  |
| Cc1cc(C)c(C2=C(O)CC(C(C)CS(=O)(=O)c3ccc(C(F)(F)F)cc3)CC2=O)c(C)c1 (stereo not drawn) [Compound 1-99] |  |  | ≥ 7 |
| Cc1cc(C)c(C2=C(O)CC(C(C)C[S+]([O-])c3ccc(C(F)(F)F)cn3)CC2=O)c(C)c1 (stereo not drawn) [Compound 1-100] | ≥ 7 | ≥ 9 | ≥ 7 |
| CCc1cc(C)cc(CC)c1C1=C(O)CC(CCSc2ccc(Br)cc2)CC1=O (stereo not drawn) [Compound 1-71] | ≥ 7 | ≥ 9 |  |
| C=Cc1ccccc1C1=C(O)CC(CCSc2ccc(C(F)(F)F)cc2)CC1=O (stereo not drawn) [Compound 1-95] | ≥ 7 | ≥ 9 |  |
| CCc1cc(C)cc(CC)c1C1=C(O)CC(CCSc2ncccc2Cl)CC1=O (stereo not drawn) [Compound 1-127] | ≥ 7 | ≥ 9 |  |

| SMILES | efficacy for Echinochloa crus-galli (visually observed, 11 criteria of 0 to 10) (Echinochloa crus-galli [1]) | efficacy for Echinochloa crus-galli (controlling effect, visually observed, 11 criteria of 0 to 10) (Echinochloa crus-galli [2]) | efficacy for Galium aparine (visually observed, 11 criteria of 0 to 10) (Galium aparine) |
| --- | --- | --- | --- |
| CCc1ccccc1C1=C(O)CC(CCSc2ccc(C(F)(F)F)cc2)CC1=O (stereo not drawn) [Compound 1-94] | ≥ 7 | ≥ 9 |  |
| CCc1cc(C)cc(CC)c1C1=C(O)CC(CCNc2ccc(C(F)(F)F)cc2)CC1=O (stereo not drawn) [Compound 1-107] |  | ≥ 9 |  |
| CCc1cc(C)cc(CC)c1C1=C(O)CC(C2(CS(=O)(=O)c3ccc(C(F)(F)F)cc3)CC2)CC1=O (stereo not drawn) [Compound 1-92] | ≥ 7 | ≥ 9 |  |
| CCc1cc(C)cc(CC)c1C1=C(O)CC(C(C)CS(=O)(=O)c2ccc(C(F)(F)F)cn2)CC1=O (stereo not drawn) [Compound 1-84] | ≥ 7 | ≥ 9 |  |
| CCc1cc(C)cc(CC)c1C1=C(O)CC(CCS(=O)(=O)c2ccc(C(F)(F)F)cc2)CC1=O (stereo not drawn) [Compound 1-20] | ≥ 7 |  |  |
| O=C1CC(CCSc2ccc(C(F)(F)F)cc2)CC(O)=C1c1ccccc1Br (stereo not drawn) [Compound 1-171] |  | ≥ 9 |  |
| CCc1cc(C)cc(CC)c1C1=C(O)CC(CCSc2cnc(C(F)(F)F)cn2)CC1=O (stereo not drawn) [Compound 1-115] | ≥ 7 | ≥ 9 |  |
| CCc1cc(C)cc(CC)c1C1=C(O)CC(CCSc2cccc(C(F)(F)F)c2)CC1=O (stereo not drawn) [Compound 1-29] | ≥ 7 | ≥ 9 |  |
| CCc1cc(C)cc(CC)c1C1=C(O)CC(CC[S+]([O-])c2ccc(C(F)(F)F)nn2)CC1=O (stereo not drawn) [Compound 1-165] | ≥ 7 | ≥ 9 |  |
| Cc1cc(C)c(C2=C(O)CC(C(C)CSc3cccc(F)c3)CC2=O)c(C)c1 (stereo not drawn) [Compound 1-162] | ≥ 7 | ≥ 9 | ≥ 7 |
| CCc1cc(C)cc(CC)c1C1=C(O)CC(CCSc2ccc(C(F)(F)F)cc2)CC1=O (stereo not drawn) [Compound 1-58] | ≥ 7 | ≥ 9 |  |
| CCc1cc(C)cc(CC)c1C1=C(O)CC(CCn2cc(-c3ccc(F)cc3)nn2)CC1=O (stereo not drawn) [Compound 1-134] | ≥ 7 | ≥ 9 |  |
| CCc1cc(C)cc(CC)c1C1=C(O)CC(CCSc2ncc(C(F)(F)F)cn2)CC1=O (stereo not drawn) [Compound 1-109] | ≥ 7 | ≥ 9 |  |
| CCc1cc(CC)c(C2=C(O)CC(CCSc3ccc(C(F)(F)F)cc3)CC2=O)c(CC)c1 (stereo not drawn) [Compound 1-44] | ≥ 7 | ≥ 9 |  |
| CCc1cc(C)cc(CC)c1C1=C(O)CC(CCSc2ccc(SC)cc2)CC1=O (stereo not drawn) [Compound 1-104] | ≥ 7 |  |  |
| CCc1cc(C)cc(CC)c1C1=C(O)CC(CCSc2ccc([N+](=O)[O-])cn2)CC1=O (stereo not drawn) [Compound 1-73] | ≥ 7 | ≥ 9 |  |
| CCc1cc(C)cc(CC)c1C1=C(O)CC(CCSc2cccc(C)c2)CC1=O (stereo not drawn) [Compound 1-146] | ≥ 7 |  |  |
| CCc1cc(C)cc(CC)c1C1=C(O)CC(C2(C[S+]([O-])c3ccc(C(F)(F)F)cc3)CC2)CC1=O (stereo not drawn) [Compound 1-91] | ≥ 7 | ≥ 9 |  |
| CCc1cc(C)cc(CC)c1C1=C(O)CC(CCSc2ccc(OC(F)(F)F)cc2)CC1=O (stereo not drawn) [Compound 1-31] | ≥ 7 | ≥ 9 |  |
